Values from PubChem BioAssay AID1259308 (NCATS, 2017)

Test: 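Candidate targets for better recombinant protein yield in mammalian cells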 (primary screen)
Cells: human HEK293 embryonic kidney cells stably expressing firefly luciferase (HEK-CMV-Luc2-Hygro)
Knock-down reagent: single siRNA against human genes, 0.8 pmol siRNA per well
Timing: 72 h
Measured: 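Luciferase light (ONE-Glo) measured on one replicate plate set and viability (CellTiter-Glo) on the other, scaled to a negative control siRNA, with robust z-scores and luciferase per cell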
Direction: total luciferase, z-score: higher = more reporter protein produced
Call rule: 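An siRNA counts as active if its total luciferase robust z-score exceeds 3; genes with two or more such siRNAs out of three were retested with fresh siRNAs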
Meaning of the calls: active = raised luciferase; inactive = no rise
In all, the deposit lists about 59,000 reagents; below is a random part of them. In the full data, about 1,510 (2.6%) were called active. 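Calls use total luciferase alone and ignore viability, so some active siRNAs may act by altering cell number.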 Reagents against one gene are numbered here. Not all columns of the deposit are shown.

no.	gene knocked down	reagent no.	total luciferase, z-score	call
1	KRT42P	1	1.08	inactive
2	KRT42P	2	0.0936	inactive
3	KRT42P	3	-1.91	inactive
4	RETNLB	1	-0.467	inactive
5	RETNLB	2	0.634	inactive
6	RETNLB	3	0.227	inactive
7	TAB2	1	-0.00535	inactive
8	TAB2	2	-0.731	inactive
9	TAB2	3	1.79	inactive
10	DBF4P1	1	-2.25	inactive
11	DBF4P1	2	-0.116	inactive
12	DBF4P1	3	-1.28	inactive
13	TTBK1	1	-0.354	inactive
14	TTBK1	2	-0.264	inactive
15	TTBK1	3	-1.68	inactive
16	NF2	1	0.935	inactive
17	NF2	2	-0.264	inactive
18	NF2	3	0.65	inactive
19	FBXL13	1	0.284	inactive
20	FBXL13	2	-0.834	inactive
21	FBXL13	3	1.98	inactive
22	CRMP1	1	0.464	inactive
23	CRMP1	2	-0.313	inactive
24	CRMP1	3	0.594	inactive

Records listed so far whose gene name starts with R or r (3):
gene knocked down	reagent no.	total luciferase, z-score	call
RETNLB	1	-0.467	inactive
RETNLB	2	0.634	inactive
RETNLB	3	0.227	inactive
